Here are results for 1 substance from article PMC8317538.

By UniProt entry, the sequences of proteins in these tests, tags left out.
UniProt Q15910: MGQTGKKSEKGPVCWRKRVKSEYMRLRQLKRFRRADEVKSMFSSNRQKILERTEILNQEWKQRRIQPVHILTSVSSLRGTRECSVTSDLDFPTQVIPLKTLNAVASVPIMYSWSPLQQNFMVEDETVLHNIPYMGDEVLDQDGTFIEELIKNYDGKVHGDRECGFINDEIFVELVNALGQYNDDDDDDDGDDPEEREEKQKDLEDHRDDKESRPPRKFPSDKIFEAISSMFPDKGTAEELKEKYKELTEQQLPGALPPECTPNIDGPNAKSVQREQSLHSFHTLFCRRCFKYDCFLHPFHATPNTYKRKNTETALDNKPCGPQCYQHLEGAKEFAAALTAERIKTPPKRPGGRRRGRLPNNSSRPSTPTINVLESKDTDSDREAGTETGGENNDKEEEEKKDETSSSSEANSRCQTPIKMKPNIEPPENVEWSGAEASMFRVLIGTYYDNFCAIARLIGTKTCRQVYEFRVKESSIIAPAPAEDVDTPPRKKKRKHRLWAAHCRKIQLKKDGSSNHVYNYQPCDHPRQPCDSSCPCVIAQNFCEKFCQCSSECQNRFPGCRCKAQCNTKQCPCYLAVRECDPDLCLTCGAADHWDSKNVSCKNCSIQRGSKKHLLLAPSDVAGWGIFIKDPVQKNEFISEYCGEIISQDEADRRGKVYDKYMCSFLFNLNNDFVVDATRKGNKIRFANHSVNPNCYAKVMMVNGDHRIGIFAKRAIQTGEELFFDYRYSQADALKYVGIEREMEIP
UniProt P40763: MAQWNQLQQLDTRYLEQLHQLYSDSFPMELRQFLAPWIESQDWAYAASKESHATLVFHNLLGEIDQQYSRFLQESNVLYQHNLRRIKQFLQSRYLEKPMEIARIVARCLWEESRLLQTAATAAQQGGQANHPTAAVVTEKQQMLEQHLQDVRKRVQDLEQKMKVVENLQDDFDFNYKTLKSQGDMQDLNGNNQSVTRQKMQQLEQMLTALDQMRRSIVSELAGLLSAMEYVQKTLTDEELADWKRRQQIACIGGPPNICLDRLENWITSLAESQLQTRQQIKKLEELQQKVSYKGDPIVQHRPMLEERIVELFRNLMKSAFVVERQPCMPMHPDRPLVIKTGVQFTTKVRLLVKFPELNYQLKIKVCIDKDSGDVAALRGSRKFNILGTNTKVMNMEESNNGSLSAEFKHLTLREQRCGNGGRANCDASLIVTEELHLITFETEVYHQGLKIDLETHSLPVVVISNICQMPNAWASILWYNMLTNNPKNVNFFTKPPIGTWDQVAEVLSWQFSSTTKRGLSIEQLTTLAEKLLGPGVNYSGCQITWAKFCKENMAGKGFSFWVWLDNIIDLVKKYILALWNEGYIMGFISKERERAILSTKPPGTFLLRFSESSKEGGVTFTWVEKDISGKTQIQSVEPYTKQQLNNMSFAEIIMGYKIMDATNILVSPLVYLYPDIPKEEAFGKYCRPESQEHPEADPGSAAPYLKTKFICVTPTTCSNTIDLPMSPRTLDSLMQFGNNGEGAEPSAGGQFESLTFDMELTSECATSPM

This test has as its target Enhancer of zeste homolog 2 (EZH2) (human (endogenous in breast cancer cell lines)) (UniProt Q15910). Description: co-IP; endogenous proteins of breast cancer cells (line not given); total protein in immunoprecipitation lysis buffer, anti-EZH2 or anti-STAT3 antibody for 8 hrs, Protein A/G-coated agarose at 4°C for 4 hrs, SDS-PAGE and immunoblot; reciprocal. (Immunoblotting shows a protein as a band on a membrane.)

No constants are given. Whether binding was seen depends on the method and setting. Binding seen in cells or lysates may run through a third protein. Some entries that bind do so weakly or less than the wild type.

Consider “Signal transducer and activator of transcription 3 (STAT3) (from UniProt P40763 1-770)”, for which the binding entry is “binds”.
